Measured values reported in the supplement of paper PMC10849652.
The other results are listed elsewhere or left out.

Chains of the proteins cited; added tags and fusions are not shown. Lines headed by an entry give the natural chain unless they say otherwise; changes in a name come on top.
UniProt Q9H4L5: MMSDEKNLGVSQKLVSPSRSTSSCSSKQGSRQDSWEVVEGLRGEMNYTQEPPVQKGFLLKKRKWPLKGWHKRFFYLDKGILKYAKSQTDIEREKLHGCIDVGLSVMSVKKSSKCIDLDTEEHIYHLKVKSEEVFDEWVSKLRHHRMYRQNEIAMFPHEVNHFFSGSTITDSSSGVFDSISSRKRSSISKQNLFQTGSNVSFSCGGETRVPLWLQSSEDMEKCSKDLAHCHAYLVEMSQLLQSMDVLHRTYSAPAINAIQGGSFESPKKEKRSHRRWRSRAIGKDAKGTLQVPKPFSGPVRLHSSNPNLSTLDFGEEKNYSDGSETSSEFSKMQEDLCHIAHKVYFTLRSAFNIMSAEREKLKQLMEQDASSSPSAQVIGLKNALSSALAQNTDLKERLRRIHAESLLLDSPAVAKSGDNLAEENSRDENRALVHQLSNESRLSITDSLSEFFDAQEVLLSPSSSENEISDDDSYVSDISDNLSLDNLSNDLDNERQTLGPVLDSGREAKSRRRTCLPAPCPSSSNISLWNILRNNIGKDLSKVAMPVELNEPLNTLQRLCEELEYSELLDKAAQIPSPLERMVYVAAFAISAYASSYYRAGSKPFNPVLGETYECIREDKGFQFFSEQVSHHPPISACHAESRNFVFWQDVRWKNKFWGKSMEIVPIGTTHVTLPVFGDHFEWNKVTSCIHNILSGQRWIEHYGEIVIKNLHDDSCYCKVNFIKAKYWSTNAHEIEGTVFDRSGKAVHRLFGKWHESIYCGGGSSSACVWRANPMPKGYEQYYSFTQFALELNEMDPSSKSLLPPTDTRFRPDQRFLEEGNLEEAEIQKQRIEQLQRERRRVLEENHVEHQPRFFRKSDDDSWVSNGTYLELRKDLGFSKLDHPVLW
UniProt Q92621: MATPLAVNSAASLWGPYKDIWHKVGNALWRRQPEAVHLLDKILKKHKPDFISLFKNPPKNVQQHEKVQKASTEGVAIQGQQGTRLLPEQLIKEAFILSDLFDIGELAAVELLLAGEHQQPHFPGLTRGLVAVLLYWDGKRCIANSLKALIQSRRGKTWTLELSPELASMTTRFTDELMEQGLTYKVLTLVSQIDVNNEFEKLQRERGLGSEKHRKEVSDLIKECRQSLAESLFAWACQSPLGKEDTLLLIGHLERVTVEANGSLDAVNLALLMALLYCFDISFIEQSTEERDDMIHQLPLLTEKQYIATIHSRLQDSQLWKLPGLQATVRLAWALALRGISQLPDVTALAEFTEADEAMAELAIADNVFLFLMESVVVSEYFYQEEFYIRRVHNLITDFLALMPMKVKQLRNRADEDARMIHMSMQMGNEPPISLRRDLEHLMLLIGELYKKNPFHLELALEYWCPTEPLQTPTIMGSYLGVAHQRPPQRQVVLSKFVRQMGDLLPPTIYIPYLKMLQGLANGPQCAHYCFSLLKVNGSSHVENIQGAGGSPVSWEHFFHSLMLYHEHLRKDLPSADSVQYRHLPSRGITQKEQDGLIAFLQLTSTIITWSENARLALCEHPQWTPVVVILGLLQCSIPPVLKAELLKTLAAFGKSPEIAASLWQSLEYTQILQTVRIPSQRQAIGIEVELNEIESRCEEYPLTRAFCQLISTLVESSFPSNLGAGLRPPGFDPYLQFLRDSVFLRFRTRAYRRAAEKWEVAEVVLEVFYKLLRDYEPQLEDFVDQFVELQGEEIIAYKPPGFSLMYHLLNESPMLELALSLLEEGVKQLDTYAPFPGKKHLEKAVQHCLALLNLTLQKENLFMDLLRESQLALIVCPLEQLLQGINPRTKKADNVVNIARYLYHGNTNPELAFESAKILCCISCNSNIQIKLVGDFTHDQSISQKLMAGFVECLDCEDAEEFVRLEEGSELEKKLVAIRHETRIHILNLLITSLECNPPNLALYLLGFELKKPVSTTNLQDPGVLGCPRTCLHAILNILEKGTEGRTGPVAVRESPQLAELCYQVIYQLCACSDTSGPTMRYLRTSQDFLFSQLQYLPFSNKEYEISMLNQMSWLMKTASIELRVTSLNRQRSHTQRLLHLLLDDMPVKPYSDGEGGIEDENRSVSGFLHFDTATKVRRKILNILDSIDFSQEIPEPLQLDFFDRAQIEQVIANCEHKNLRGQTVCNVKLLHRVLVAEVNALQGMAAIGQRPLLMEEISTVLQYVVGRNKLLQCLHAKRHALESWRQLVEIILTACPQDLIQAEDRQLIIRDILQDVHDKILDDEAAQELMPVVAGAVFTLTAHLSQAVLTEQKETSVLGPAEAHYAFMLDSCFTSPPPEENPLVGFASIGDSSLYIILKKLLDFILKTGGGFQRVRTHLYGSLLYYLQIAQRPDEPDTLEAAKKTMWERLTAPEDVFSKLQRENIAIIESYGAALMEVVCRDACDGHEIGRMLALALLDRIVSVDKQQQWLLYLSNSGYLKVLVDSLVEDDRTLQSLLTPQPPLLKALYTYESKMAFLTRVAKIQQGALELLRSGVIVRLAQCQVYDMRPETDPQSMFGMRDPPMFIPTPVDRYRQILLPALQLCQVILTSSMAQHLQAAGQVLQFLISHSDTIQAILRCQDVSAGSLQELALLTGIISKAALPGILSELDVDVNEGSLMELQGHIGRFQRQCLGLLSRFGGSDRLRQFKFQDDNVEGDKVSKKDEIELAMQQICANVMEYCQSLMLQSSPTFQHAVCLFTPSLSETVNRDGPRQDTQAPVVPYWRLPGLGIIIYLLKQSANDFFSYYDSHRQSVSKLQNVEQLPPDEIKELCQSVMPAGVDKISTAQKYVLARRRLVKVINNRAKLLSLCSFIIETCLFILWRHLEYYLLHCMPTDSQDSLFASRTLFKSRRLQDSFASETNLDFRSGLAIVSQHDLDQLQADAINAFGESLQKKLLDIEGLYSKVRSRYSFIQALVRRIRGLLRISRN
UniProt Q96MF7: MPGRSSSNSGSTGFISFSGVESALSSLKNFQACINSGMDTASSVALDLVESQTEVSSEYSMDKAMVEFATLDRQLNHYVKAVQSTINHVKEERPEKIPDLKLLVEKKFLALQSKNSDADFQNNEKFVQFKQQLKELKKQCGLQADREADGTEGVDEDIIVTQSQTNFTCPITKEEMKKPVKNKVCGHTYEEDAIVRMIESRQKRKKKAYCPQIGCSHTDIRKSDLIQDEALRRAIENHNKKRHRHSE
UniProt Q9UBD5: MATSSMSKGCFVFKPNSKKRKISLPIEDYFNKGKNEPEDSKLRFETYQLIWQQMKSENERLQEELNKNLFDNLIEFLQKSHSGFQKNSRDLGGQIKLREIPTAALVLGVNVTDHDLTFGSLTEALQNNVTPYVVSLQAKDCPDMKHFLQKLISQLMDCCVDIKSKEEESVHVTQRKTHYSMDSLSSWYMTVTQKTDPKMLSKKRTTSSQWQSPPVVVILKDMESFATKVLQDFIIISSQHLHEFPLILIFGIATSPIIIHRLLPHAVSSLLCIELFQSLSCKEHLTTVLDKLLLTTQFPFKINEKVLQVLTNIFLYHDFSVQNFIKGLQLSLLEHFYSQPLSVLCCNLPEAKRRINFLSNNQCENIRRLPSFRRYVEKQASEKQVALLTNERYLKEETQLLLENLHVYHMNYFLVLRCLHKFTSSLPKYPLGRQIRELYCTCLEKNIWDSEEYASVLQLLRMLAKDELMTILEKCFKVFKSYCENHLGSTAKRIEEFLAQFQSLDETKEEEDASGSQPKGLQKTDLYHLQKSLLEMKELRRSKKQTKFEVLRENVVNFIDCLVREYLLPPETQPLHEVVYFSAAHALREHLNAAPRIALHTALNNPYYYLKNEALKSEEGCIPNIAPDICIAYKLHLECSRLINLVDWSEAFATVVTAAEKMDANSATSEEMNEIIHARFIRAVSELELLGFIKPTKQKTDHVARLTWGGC
UniProt Q969T7: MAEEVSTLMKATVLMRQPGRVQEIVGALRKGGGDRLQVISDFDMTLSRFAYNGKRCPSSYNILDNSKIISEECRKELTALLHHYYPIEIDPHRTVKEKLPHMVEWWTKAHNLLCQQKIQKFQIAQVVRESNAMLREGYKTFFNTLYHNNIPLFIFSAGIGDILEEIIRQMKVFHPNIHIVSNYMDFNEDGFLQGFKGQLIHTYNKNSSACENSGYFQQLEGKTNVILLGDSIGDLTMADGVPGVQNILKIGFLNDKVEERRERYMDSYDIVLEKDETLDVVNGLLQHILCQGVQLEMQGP
UniProt Q9H6K4: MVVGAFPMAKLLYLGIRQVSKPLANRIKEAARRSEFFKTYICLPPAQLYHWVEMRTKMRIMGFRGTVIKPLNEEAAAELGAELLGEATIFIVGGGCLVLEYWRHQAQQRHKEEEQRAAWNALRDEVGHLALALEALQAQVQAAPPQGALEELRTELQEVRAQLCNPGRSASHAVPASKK
UniProt Q96BN8, whole entry, looked up: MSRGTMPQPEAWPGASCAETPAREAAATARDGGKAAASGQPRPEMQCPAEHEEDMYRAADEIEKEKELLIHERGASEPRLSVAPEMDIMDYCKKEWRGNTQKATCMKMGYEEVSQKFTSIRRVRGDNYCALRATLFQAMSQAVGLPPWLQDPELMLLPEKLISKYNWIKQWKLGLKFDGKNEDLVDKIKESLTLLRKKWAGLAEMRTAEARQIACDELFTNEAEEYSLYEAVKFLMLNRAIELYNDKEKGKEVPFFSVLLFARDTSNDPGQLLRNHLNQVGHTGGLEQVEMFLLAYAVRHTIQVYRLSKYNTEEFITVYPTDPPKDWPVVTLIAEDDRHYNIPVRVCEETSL
UniProt Q8WVJ2: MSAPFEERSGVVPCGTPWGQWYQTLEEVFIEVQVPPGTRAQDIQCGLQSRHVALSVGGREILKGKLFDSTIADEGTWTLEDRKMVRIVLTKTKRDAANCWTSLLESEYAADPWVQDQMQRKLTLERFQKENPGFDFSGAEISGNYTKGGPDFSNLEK
UniProt P49757: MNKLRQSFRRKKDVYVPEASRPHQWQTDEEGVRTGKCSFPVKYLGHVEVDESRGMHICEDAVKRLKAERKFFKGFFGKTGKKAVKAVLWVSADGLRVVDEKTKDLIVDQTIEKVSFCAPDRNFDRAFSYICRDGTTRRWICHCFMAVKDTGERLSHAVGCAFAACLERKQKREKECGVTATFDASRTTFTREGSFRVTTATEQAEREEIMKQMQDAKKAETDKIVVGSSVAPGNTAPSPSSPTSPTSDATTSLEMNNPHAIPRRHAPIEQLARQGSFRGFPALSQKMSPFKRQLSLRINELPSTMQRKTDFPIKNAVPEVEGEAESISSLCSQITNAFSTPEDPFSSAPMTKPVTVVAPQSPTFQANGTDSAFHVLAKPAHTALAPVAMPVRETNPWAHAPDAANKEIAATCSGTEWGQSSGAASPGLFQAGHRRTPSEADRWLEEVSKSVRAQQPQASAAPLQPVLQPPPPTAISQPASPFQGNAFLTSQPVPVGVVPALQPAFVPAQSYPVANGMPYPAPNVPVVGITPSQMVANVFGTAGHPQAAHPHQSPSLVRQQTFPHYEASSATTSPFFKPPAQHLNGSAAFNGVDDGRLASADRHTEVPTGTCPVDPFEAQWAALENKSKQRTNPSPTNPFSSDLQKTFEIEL
UniProt Q9H4B0: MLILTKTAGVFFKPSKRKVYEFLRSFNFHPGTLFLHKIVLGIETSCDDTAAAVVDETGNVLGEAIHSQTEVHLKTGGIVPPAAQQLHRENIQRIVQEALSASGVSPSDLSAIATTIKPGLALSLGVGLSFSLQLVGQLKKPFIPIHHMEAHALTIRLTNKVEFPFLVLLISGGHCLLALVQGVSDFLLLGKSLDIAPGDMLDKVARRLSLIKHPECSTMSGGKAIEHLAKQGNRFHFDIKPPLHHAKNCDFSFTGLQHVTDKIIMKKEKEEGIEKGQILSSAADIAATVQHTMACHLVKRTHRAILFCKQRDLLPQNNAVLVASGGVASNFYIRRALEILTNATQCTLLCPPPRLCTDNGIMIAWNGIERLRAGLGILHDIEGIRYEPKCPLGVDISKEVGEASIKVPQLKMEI
UniProt P20774: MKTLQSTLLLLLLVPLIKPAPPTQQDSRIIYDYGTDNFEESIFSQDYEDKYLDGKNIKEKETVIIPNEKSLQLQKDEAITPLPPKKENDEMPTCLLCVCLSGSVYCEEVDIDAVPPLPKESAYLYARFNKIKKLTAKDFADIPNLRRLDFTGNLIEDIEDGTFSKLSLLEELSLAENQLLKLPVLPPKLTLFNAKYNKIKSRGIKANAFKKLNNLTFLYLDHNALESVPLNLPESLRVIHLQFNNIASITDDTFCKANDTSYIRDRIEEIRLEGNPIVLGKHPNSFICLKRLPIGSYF
UniProt Q9NXX6: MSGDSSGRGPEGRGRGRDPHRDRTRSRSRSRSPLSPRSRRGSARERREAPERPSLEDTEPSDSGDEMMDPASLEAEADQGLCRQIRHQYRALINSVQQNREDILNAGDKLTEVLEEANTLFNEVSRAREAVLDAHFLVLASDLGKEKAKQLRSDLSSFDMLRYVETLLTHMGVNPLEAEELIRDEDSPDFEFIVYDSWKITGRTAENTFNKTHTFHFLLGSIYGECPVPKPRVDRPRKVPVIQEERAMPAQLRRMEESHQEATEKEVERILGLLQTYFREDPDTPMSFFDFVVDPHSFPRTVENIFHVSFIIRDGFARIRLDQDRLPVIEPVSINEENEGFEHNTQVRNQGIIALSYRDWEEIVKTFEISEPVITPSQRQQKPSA

Experiments:
Experiment in all cases: log2 fold change, soluble protein after heating vs DMSO (PISA); higher = thermal stabilisation; K562 cells, 10 uM, 30 min; active = over 0.2 and 3.5 SD of the protein, either way, in both replicates (recomputed)
[1] = compound: COC1=CC=C(C=C1)CN2C=CC3=C2C=C(C=C3)C(=O)NO
Outline: (§1)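 Soluble protein was quantified by TMTpro 16plex LC-MS/MS after channel sums were equalised. It was obtained as the supernatant after 21,000xg for 90 min from pooled aliquots of K562 cells (2×10^6 cells/mL, 10 μM compound, 30 min) heated for 3 min across 48°C-58°C and extracted in PBS with 0.5% NP-40 at 4°C. Thermal stability values are relative to control samples and come from duplicates. They are given as log2 fold changes.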

filanesib = compound: CON(C)C(=O)N1N=C(c2cc(F)ccc2F)S[C@@]1(CCCN)c1ccccc1 [filanesib]
Outline: as §1

zotarolimus = compound: CO[C@H]1C[C@@H]2CC[C@@H](C)[C@@](O)(O2)C(=O)C(=O)N2CCCC[C@H]2C(=O)O[C@H]([C@H](C)C[C@@H]2CC[C@H](n3cnnn3)[C@H](OC)C2)CC(=O)[C@H](C)/C=C(\C)[C@@H](O)[C@@H](OC)C(=O)[C@H](C)C[C@H](C)/C=C/C=C/C=C/1C [zotarolimus]
Outline: as §1

idasanutlin = compound: COc1cc(C(=O)O)ccc1NC(=O)[C@@H]1N[C@@H](CC(C)(C)C)[C@](C#N)(c2ccc(Cl)cc2F)[C@H]1c1cccc(Cl)c1F [idasanutlin]
Outline: as §1

[2] = compound: COc1cc2nc(-c3cc(F)ccc3O)nc(N[C@@H]3CNC[C@H]3C(C)(C)O)c2cc1OC
Outline: as §1

gefitinib = compound: COc1cc2ncnc(Nc3ccc(F)c(Cl)c3)c2cc1OCCCN1CCOCC1 [gefitinib]
Outline: as §1

lapatinib = compound: CS(=O)(=O)CCNCc1ccc(-c2ccc3ncnc(Nc4ccc(OCc5cccc(F)c5)c(Cl)c4)c3c2)o1 [lapatinib]
Outline: as §1

[3] = compound: CS(=O)(=O)c1ccc(-c2cnc(N)c(C(=O)Nc3ccccc3)n2)cc1
Outline: as §1

crizotinib = compound: C[C@@H](Oc1cc(-c2cnn(C3CCNCC3)c2)cnc1N)c1c(Cl)ccc(F)c1Cl [crizotinib]
Outline: as §1

[4] = compound: C[C@@H]1COCCN1C2=NC(=NC(=C2)C3(CC3)S(=O)(=O)C)C4=C5C=CNC5=CC=C4
Outline: as §1

[5] = compound: C[C@H](C1=CC=C(C=C1)C(=O)NC2=C3C=CNC3=NC=C2)N
Outline: as §1

[6] = compound: Cc1cc(SCc2sc(-c3ccc(C(F)(F)F)cc3)nc2C)ccc1OCC(=O)O
Outline: as §1

doramapimod = compound: Cc1ccc(-n2nc(C(C)(C)C)cc2NC(=O)Nc2ccc(OCCN3CCOCC3)c3ccccc23)cc1 [doramapimod]
Outline: as §1

ispinesib = compound: Cc1ccc(C(=O)N(CCCN)[C@@H](c2nc3cc(Cl)ccc3c(=O)n2Cc2ccccc2)C(C)C)cc1 [ispinesib]
Outline: as §1

alisertib = compound: COc1cc(Nc2ncc3c(n2)-c2ccc(Cl)cc2C(c2c(F)cccc2OC)=NC3)ccc1C(=O)O [alisertib]
Outline: as §1

[7] = compound: COc1cccc2cc(-c3nc([C@H]4CC[C@H](C(=O)O)CC4)n4ncnc(N)c34)[nH]c12
Outline: as §1

pictilisib = compound: CS(=O)(=O)N1CCN(Cc2cc3nc(-c4cccc5[nH]ncc45)nc(N4CCOCC4)c3s2)CC1 [pictilisib]
Outline: as §1

gandotinib = compound: Cc1cc(Nc2cc(CN3CCOCC3)c3nc(C)c(Cc4ccc(Cl)cc4F)n3n2)n[nH]1 [gandotinib]
Outline: as §1

duvelisib = compound: C[C@H](Nc1ncnc2nc[nH]c12)c1cc2cccc(Cl)c2c(=O)n1-c1ccccc1 [duvelisib]
Outline: as §1

tozasertib = compound: Cc1cc(Nc2cc(N3CCN(C)CC3)nc(Sc3ccc(NC(=O)C4CC4)cc3)n2)n[nH]1 [tozasertib]
Outline: as §1

| Target | log2 fold change [1] | log2 fold change (filanesib) | log2 fold change (zotarolimus) | log2 fold change (idasanutlin) | log2 fold change [2] | log2 fold change (gefitinib) | log2 fold change (lapatinib) | log2 fold change [3] | log2 fold change (crizotinib) | log2 fold change [4] | log2 fold change [5] | log2 fold change [6] | log2 fold change (doramapimod) | log2 fold change (ispinesib) | log2 fold change (alisertib) | log2 fold change [7] | log2 fold change (pictilisib) | log2 fold change (gandotinib) | log2 fold change (duvelisib) | log2 fold change (tozasertib) |
| --- | --- | --- | --- | --- | --- | --- | --- | --- | --- | --- | --- | --- | --- | --- | --- | --- | --- | --- | --- | --- |
| OSBPL3 (UniProt Q9H4L5) | inactive: -0.052 | inactive: 0.582 | inactive: 0.14 | inactive: 0.277 | inactive: -0.688 | inactive: 0.174 | inactive: 0.391 | inactive: 0.245 | inactive: -0.017 | inactive: -0.416 | inactive: 0.572 | inactive: 0.063 | inactive: 0.189 | inactive: -0.36 | – | – | – | – | – | – |
| NUP205 (UniProt Q92621) | inactive: 0.015 | inactive: 0.01 | inactive: 0.009 | inactive: -0.08 | inactive: 0.058 | inactive: -0.011 | inactive: -0.03 | inactive: 0.001 | inactive: -0.054 | inactive: 0.002 | inactive: -0.019 | inactive: 0.094 | inactive: 0 | inactive: -0.018 | inactive: -0.014 | inactive: -0.008 | inactive: -0.01 | inactive: -0.17 | – | – |
| NSMCE2 (UniProt Q96MF7) | inactive: -0.029 | inactive: 0.045 | inactive: 0.018 | inactive: 0.027 | inactive: 0.018 | inactive: -0.009 | inactive: 0.023 | inactive: 0.001 | inactive: 0.051 | inactive: -0.038 | inactive: -0.024 | inactive: -0.042 | inactive: 0.004 | inactive: 0.044 | inactive: -0.076 | inactive: -0.018 | active: -0.233 | inactive: -0.131 | – | – |
| ORC3 isoform 2 (UniProt Q9UBD5) | inactive: 0.071 | inactive: 0.043 | inactive: 0.064 | inactive: 0.265 | inactive: -0.002 | inactive: 0.006 | inactive: 0.031 | inactive: -0.054 | active: -0.434 | inactive: 0.015 | inactive: -0.005 | inactive: 0.177 | inactive: 0.016 | inactive: -0.17 | inactive: -0.058 | inactive: -0.068 | inactive: 0.027 | inactive: -0.044 | – | – |
| NT5C3B (UniProt Q969T7) | inactive: -0.024 | inactive: -0.245 | inactive: -0.006 | inactive: 0.06 | inactive: 0.198 | inactive: 0.061 | inactive: -0.031 | inactive: -0.11 | inactive: -0.035 | – | inactive: 0.005 | inactive: -0.009 | inactive: 0.035 | inactive: 0.055 | inactive: -0.109 | inactive: 0.035 | inactive: 0.102 | inactive: 0.025 | inactive: -0.037 | inactive: 0.098 |
| ORC5 (UniProt O43913) | inactive: 0.016 | inactive: 0.104 | inactive: 0.028 | inactive: -0.013 | inactive: 0.07 | inactive: 0.088 | inactive: 0.062 | inactive: 0.166 | active: -0.766 | – | inactive: 0.008 | inactive: 0.135 | inactive: -0.104 | inactive: -0.152 | inactive: 0.125 | inactive: 0.018 | inactive: 0.012 | inactive: -0.226 | – | – |
| NUP107 (UniProt P57740) | inactive: -0.005 | inactive: 0.233 | inactive: 0.032 | inactive: 0.026 | inactive: -0.116 | inactive: -0.073 | inactive: 0.137 | inactive: 0.101 | inactive: -0.067 | inactive: -0.083 | inactive: -0.062 | inactive: 0.093 | inactive: 0.11 | inactive: -0.018 | inactive: 0.007 | inactive: -0.04 | inactive: -0.13 | inactive: -0.229 | – | – |
| OCIAD1 (UniProt D6RDK6) | inactive: -0.322 | inactive: -0.072 | inactive: -0.132 | inactive: -0.034 | inactive: 0 | – | inactive: -0.122 | inactive: 0.037 | inactive: -0.041 | inactive: 0.135 | inactive: 0.166 | inactive: 0.033 | inactive: 0.121 | inactive: -0.342 | inactive: 0.17 | inactive: 0.189 | inactive: 0.071 | inactive: -0.228 | inactive: 0.17 | inactive: -0.179 |
| OSBPL6 isoform 5 (UniProt Q9BZF3) | inactive: -0.25 | inactive: 0.781 | – | inactive: -0.227 | inactive: 0.148 | inactive: 0.524 | inactive: 0.158 | inactive: -0.195 | inactive: 0.428 | inactive: -1.43 | – | – | inactive: 0.165 | inactive: -0.373 | inactive: -0.08 | inactive: -0.213 | – | – | – | – |
| NUP160 (UniProt Q12769) | inactive: -0.043 | inactive: -0.003 | inactive: 0.017 | inactive: 0.004 | inactive: -0.068 | inactive: 0.033 | inactive: 0.057 | inactive: 0.017 | inactive: -0.014 | inactive: 0.034 | inactive: -0.027 | inactive: 0.007 | inactive: 0.019 | inactive: 0.044 | inactive: -0.076 | inactive: 0.037 | inactive: -0.021 | inactive: -0.06 | – | – |
| NUDT1 (UniProt P36639) | inactive: 0.043 | inactive: -0.06 | inactive: -0.068 | inactive: -0.169 | inactive: 0.11 | inactive: 0.354 | inactive: -0.016 | inactive: 0.185 | – | inactive: 0.08 | inactive: 0.107 | inactive: 0.017 | inactive: -0.113 | inactive: 0.012 | inactive: -0.017 | inactive: -0.046 | inactive: -0.01 | inactive: -0.167 | – | – |
| OPA3 (UniProt Q9H6K4) | inactive: 0.051 | inactive: 0.005 | inactive: -0.064 | inactive: 0.017 | inactive: -0.059 | inactive: 0.255 | inactive: -0.01 | inactive: 0.025 | inactive: -0.039 | inactive: 0.049 | inactive: -0.035 | inactive: -0.076 | inactive: -0.036 | inactive: -0.139 | inactive: -0.059 | inactive: 0.026 | – | – | inactive: 0.038 | inactive: -0.03 |
| OTULIN (UniProt Q96BN8) | inactive: 0.022 | inactive: -0.044 | inactive: -0.024 | inactive: -0.005 | inactive: 0.014 | inactive: 0 | inactive: 0.048 | inactive: -0.099 | inactive: -0.079 | inactive: 0.04 | inactive: 0.036 | inactive: 0.073 | inactive: -0.095 | inactive: -0.208 | inactive: 0.086 | inactive: -0.045 | inactive: 0.023 | inactive: -0.088 | – | – |
| NUDCD2 (UniProt Q8WVJ2) | inactive: 0.072 | inactive: -0.016 | inactive: 0.065 | inactive: 0.075 | inactive: 0.117 | inactive: 0.083 | inactive: -0.038 | inactive: 0.049 | inactive: -0.02 | inactive: 0.1 | inactive: -0.077 | inactive: 0.073 | inactive: -0.049 | inactive: -0.12 | inactive: -0.011 | inactive: -0.018 | inactive: 0.014 | inactive: -0.042 | – | – |
| NUMB (UniProt P49757) | inactive: -0.051 | inactive: 0.074 | inactive: 0.015 | inactive: 0 | inactive: 0.04 | inactive: 0.027 | inactive: 0.012 | inactive: 0.056 | inactive: -0.189 | inactive: 0.07 | inactive: -0.068 | inactive: 0.006 | inactive: -0.012 | inactive: -0.073 | inactive: -0.064 | inactive: -0.017 | inactive: 0.076 | inactive: -0.06 | – | – |
| OSGEPL1 (UniProt Q9H4B0) | inactive: -0.257 | inactive: 0.161 | inactive: -0.014 | inactive: -0.074 | inactive: 0.272 | – | inactive: 0.008 | inactive: 0.136 | inactive: -0.098 | – | inactive: 0.096 | inactive: -0.047 | inactive: 0.039 | – | – | – | inactive: -0.009 | inactive: 0.227 | inactive: 0.111 | – |
| OGN (UniProt P20774) | inactive: 0.059 | inactive: -0.051 | inactive: 0.204 | inactive: 0.214 | inactive: -0.066 | inactive: 0.1 | inactive: -0.024 | inactive: 0.115 | inactive: -0.038 | inactive: 0.206 | inactive: 0.298 | inactive: 0.363 | inactive: -0.014 | inactive: -0.057 | inactive: -0.038 | inactive: 0.137 | – | – | inactive: 0.161 | inactive: 0.044 |
| NSMCE4A (UniProt Q9NXX6) | inactive: 0.033 | inactive: 0.049 | inactive: 0.019 | inactive: 0.017 | inactive: -0.018 | inactive: 0.181 | inactive: 0.034 | inactive: 0.038 | inactive: 0.072 | inactive: -0.055 | inactive: -0.009 | inactive: 0.054 | inactive: 0.047 | inactive: 0.062 | inactive: -0.087 | active: -0.437 | inactive: -0.011 | inactive: 0.144 | – | – |

Reformatted: results already given.
Target	log2 fold change [1]	log2 fold change (filanesib)	log2 fold change (zotarolimus)	log2 fold change (idasanutlin)	log2 fold change [2]	log2 fold change (gefitinib)	log2 fold change (lapatinib)	log2 fold change [3]	log2 fold change (crizotinib)	log2 fold change [4]	log2 fold change [5]	log2 fold change [6]	log2 fold change (doramapimod)	log2 fold change (ispinesib)	log2 fold change (alisertib)	log2 fold change [7]	log2 fold change (pictilisib)	log2 fold change (gandotinib)	log2 fold change (duvelisib)	log2 fold change (tozasertib)
OPA3 (UniProt Q9H6K4)	inactive: 0.051	inactive: 0.005	inactive: -0.064	inactive: 0.017	inactive: -0.059	inactive: 0.255	inactive: -0.01	inactive: 0.025	inactive: -0.039	inactive: 0.049	inactive: -0.035	inactive: -0.076	inactive: -0.036	inactive: -0.139	inactive: -0.059	inactive: 0.026	–	–	inactive: 0.038	inactive: -0.03
OTULIN (UniProt Q96BN8)	inactive: 0.022	inactive: -0.044	inactive: -0.024	inactive: -0.005	inactive: 0.014	inactive: 0	inactive: 0.048	inactive: -0.099	inactive: -0.079	inactive: 0.04	inactive: 0.036	inactive: 0.073	inactive: -0.095	inactive: -0.208	inactive: 0.086	inactive: -0.045	inactive: 0.023	inactive: -0.088	–	–
